PubChem BioAssay AID1259285 – Sanger Institute – 2017

Test: 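Search of the kinome for kinases worth combining with drugs in colon cancer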 (primary screen)
System: human HCC56 colorectal cancer cells
Knock-down reagent: siRNA pool against human genes
Conditions: DMSO vehicle, or anchor drug BYL719 at 1 µM, cetuximab at 5 µg/ml, or trametinib at 10 nM
Detection: 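Viability as a ratio to non-targeting pool wells, averaged over replicates and turned into a robust z-score; synergy scores with BYL719, cetuximab or trametinib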
Direction: viability robust z-score, no drug: higher = more viable cells, weaker knock-down effect
Rule for the call: 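a knock-down counts as essential if its viability z-score without drug is under -3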
Calls: active = essential without drug; inactive = no change without drug
The whole screen tested 794 reagents; this is a random part of them. 20 of them (2.5%) count as active. 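Calls rest on the drug-free arm alone and ignore synergy scores; viability ratios seem to be capped at 1.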 Unmarked entries are inactive. Further read-outs or replicates are left out here. No sequences are given here. The record does not give: the amount of reagent, the time to read-out.

PFKM
- viability robust z-score, no drug: 0.458

GRK4
- viability robust z-score, no drug: -0.301

LYN
- viability robust z-score, no drug: 0.458

MAGI1
- viability robust z-score, no drug: 0.458

CKMT2
- viability robust z-score, no drug: 0.458

LMTK3
- viability robust z-score, no drug: 0.458

ELP1
- viability robust z-score, no drug: 0.458

VRK3
- viability robust z-score, no drug: 0.458

Sorted by “viability robust z-score, no drug” (ascending): some entries from above.
CKMT2
- viability robust z-score, no drug: 0.458

LMTK3
- viability robust z-score, no drug: 0.458

The list goes on:
AKT3
- viability robust z-score, no drug: 0.458

MAP3K2
- viability robust z-score, no drug: 0.458

MAP3K12
- viability robust z-score, no drug: -1.02

CAMK1G
- viability robust z-score, no drug: 0.458

SNRK
- viability robust z-score, no drug: -1.07

MAGI3
- viability robust z-score, no drug: 0.458

PRP4K
- viability robust z-score, no drug: -1.97

FLT4
- viability robust z-score, no drug: 0.458

PRPS1L1
- viability robust z-score, no drug: 0.458

NEK8
- viability robust z-score, no drug: 0.458

PDXK
- viability robust z-score, no drug: 0.458
